No constants are given. Whether binding was seen depends on the method and setting. Binding seen in cells or lysates may run through a third protein. These calls come from enrichment with a bait or labelling near it, and not all partners need be listed. Tags and fused reporters may be left off the sequences shown.
T1: mTurboID-FIRRM (FIRRM N-terminally tagged with the biotin ligase miniTurbo) (human) (UniProt Q9NSG2)
T1 sequence: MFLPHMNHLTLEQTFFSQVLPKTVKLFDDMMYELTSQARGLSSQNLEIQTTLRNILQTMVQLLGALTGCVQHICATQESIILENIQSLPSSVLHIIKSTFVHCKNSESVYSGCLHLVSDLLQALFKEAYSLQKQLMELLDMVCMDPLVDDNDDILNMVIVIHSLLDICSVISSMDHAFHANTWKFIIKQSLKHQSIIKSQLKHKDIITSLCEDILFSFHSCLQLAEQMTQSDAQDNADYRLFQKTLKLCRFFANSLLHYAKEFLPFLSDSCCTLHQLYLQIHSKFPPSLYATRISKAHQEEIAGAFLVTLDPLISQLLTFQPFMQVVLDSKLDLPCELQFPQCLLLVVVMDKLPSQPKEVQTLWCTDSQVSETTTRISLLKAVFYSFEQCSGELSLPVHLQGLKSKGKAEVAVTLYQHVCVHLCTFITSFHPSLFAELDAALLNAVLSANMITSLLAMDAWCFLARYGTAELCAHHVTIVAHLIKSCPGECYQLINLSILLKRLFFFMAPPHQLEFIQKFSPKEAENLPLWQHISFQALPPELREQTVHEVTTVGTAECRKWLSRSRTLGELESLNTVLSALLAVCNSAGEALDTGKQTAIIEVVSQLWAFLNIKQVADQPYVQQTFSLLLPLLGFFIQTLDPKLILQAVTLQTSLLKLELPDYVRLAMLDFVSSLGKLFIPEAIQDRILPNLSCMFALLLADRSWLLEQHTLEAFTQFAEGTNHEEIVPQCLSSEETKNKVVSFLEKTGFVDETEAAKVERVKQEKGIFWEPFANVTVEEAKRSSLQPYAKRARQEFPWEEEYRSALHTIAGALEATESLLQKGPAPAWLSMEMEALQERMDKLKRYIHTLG

Protein sequences, listed by entry. Tags and fused reporters are not part of them.
UniProt Q15154: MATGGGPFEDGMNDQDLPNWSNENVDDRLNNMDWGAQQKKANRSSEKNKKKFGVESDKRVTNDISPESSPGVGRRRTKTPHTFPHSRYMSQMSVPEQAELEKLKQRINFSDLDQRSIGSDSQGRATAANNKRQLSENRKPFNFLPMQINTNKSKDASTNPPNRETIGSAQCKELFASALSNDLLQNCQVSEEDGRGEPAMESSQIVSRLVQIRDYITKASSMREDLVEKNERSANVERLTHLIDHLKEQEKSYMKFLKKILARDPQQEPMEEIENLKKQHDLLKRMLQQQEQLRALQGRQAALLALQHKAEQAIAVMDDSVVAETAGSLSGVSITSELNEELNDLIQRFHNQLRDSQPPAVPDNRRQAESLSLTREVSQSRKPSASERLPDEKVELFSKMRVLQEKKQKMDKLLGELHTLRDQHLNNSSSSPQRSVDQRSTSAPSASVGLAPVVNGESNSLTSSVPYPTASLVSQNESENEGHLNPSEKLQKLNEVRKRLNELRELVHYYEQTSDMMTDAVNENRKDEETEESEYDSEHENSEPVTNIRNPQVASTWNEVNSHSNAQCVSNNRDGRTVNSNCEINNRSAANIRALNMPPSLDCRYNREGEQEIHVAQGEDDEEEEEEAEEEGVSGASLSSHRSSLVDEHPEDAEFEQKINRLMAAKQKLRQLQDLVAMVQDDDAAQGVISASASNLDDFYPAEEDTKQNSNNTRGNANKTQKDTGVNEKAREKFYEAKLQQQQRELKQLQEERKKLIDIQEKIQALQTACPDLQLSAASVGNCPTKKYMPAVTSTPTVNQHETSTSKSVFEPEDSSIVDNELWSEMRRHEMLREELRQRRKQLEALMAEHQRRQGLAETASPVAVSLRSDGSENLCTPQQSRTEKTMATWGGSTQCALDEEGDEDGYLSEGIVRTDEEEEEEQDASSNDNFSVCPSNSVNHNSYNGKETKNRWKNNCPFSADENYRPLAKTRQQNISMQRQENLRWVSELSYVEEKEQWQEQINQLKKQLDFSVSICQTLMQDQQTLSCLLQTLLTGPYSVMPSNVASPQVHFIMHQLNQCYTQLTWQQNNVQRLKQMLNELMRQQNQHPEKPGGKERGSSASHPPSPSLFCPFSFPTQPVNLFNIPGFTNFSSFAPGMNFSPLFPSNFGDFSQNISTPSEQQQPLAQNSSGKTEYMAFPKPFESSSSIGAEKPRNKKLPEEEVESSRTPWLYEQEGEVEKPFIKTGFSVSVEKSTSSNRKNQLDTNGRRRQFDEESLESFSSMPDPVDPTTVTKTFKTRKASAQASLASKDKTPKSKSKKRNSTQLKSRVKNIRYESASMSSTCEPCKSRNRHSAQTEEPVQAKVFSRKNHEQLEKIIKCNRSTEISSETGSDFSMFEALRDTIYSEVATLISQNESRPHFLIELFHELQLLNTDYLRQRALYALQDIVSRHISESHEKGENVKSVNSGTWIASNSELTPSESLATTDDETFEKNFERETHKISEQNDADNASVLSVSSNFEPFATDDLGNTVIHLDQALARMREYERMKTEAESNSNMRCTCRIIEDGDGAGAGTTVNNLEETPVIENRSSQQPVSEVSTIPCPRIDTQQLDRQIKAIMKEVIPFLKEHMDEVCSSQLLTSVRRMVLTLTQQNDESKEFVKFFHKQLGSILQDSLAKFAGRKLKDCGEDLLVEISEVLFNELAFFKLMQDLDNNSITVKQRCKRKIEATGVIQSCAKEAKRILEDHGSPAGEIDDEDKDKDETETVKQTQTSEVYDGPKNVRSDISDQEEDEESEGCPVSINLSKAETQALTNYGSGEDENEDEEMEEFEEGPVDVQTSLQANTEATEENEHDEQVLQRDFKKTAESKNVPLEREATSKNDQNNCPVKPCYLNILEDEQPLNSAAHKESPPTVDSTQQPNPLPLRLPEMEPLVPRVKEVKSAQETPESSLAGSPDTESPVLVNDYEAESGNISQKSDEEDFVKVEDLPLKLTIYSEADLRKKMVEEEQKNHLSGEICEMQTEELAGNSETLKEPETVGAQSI

B1: DNA excision repair protein ERCC6-like (protein, UniProt Q2NKX8 1-1250)
chain: MEASRRFPEAEALSPEQAAHYLRYVKEAKEATKNGDLEEAFKLFNLAKDIFPNEKVLSRIQKIQEALEELAEQGDDEFTDVCNSGLLLYRELHNQLFEHQKEGIAFLYSLYRDGRKGGILADDMGLGKTVQIIAFLSGMFDASLVNHVLLIMPTNLINTWVKEFIKWTPGMRVKTFHGPSKDERTRNLNRIQQRNGVIITTYQMLINNWQQLSSFRGQEFVWDYVILDEAHKIKTSSTKSAICARAIPASNRLLLTGTPIQNNLQELWSLFDFACQGSLLGTLKTFKMEYENPITRAREKDATPGEKALGFKISENLMAIIKPYFLRRTKEDVQKKKSSNPEARLNEKNPDVDAICEMPSLSRKNDLIIWIRLVPLQEEIYRKFVSLDHIKELLMETRSPLAELGVLKKLCDHPRLLSARACCLLNLGTFSAQDGNEGEDSPDVDHIDQVTDDTLMEESGKMIFLMDLLKRLRDEGHQTLVFSQSRQILNIIERLLKNRHFKTLRIDGTVTHLLEREKRINLFQQNKDYSVFLLTTQVGGVGLTLTAATRVVIFDPSWNPATDAQAVDRVYRIGQKENVVVYRLITCGTVEEKIYRRQVFKDSLIRQTTGEKKNPFRYFSKQELRELFTIEDLQNSVTQLQLQSLHAAQRKSDIKLDEHIAYLQSLGIAGISDHDLMYTCDLSVKEELDVVEESHYIQQRVQKAQFLVEFESQNKEFLMEQQRTRNEGAWLREPVFPSSTKKKCPKLNKPQPQPSPLLSTHHTQEEDISSKMASVVIDDLPKEGEKQDLSSIKVNVTTLQDGKGTGSADSIATLPKGFGSVEELCTNSSLGMEKSFATKNEAVQKETLQEGPKQEALQEDPLESFNYVLSKSTKADIGPNLDQLKDDEILRHCNPWPIISITNESQNAESNVSIIEIADDLSASHSALQDAQASEAKLEEEPSASSPQYACDFNLFLEDSADNRQNFSSQSLEHVEKENSLCGSAPNSRAGFVHSKTCLSWEFSEKDDEPEEVVVKAKIRSKARRIVSDGEDEDDSFKDTSSINPFNTSLFQFSSVKQFDASTPKNDISPPGRFFSSQIPSSVNKSMNSRRSLASRRSLINMVLDHVEDMEERLDDSSEAKGPEDYPEEGVEESSGEASKYTEEDPSGETLSSENKSSWLMTSKPSALAQETSLGAPEPLSGEQLVGSPQDKAAEATNDYETLVKRGKELKECGKIQEALNCLVKALDIKSADPEVMLLTLSLYKQLNNN
B2: endogenous FIGNL1 (Fidgetin like 1) (protein, UniProt Q6PIW4 1-674)
chain: MQTSSSRSVHLSEWQKNYFAITSGICTGPKADAYRAQILRIQYAWANSEISQVCATKLFKKYAEKYSAIIDSDNVESGLNNYAENILTLAGSQQTDSDKWQSGLSINNVFKMSSVQKMMQAGKKFKDSLLEPALASVVIHKEATVFDLPKFSVCGSSQESDSLPNSAHDRDRTQDFPESNRLKLLQNAQPPMVTNTARTCPTFSAPVGESATAKFHVTPLFGNVKKENHSSAKENIGLNVFLSNQSCFPAACENPQRKSFYGSGTIDALSNPILNKACSKTEDNGPKEDSSLPTFKTAKEQLWVDQQKKYHQPQRASGSSYGGVKKSLGASRSRGILGKFVPPIPKQDGGEQNGGMQCKPYGAGPTEPAHPVDERLKNLEPKMIELIMNEIMDHGPPVNWEDIAGVEFAKATIKEIVVWPMLRPDIFTGLRGPPKGILLFGPPGTGKTLIGKCIASQSGATFFSISASSLTSKWVGEGEKMVRALFAVARCQQPAVIFIDEIDSLLSQRGDGEHESSRRIKTEFLVQLDGATTSSEDRILVVGATNRPQEIDEAARRRLVKRLYIPLPEASARKQIVINLMSKEQCCLSEEEIEQIVQQSDAFSGADMTQLCREASLGPIRSLQTADIATITPDQVRPIAYIDFENAFRTVRPSVSPKDLELYENWNKTFGCGK

These molecules were tested against T1, mTurboID-FIRRM (FIRRM N-terminally tagged with the biotin ligase miniTurbo) (human) (assay: proximity labelling; mTurboID-FIRRM stably expressed in HEK293 Flp-In cells, steady state, 3 hours of biotin labeling; streptavidin pull-down and mass spectrometry, SAINTexpress against the empty tag).

binding, binds:
pericentriolar material 1 protein (from UniProt Q15154 1-2024)
B1
B2

Reference: paper PMC10411901, “FIRRM cooperates with FIGNL1 to promote RAD51 disassembly during DNA repair” (Science Advances, 2023)
